Test results as given in PMC3540053.
Numbering of substitutions follows the chain as printed. Results are given in words; binding and its absence hold for the method and conditions named.

T1: OsCOI2(N477Y) (Oryza sativa) (UniProt Q84QA7)
T1 sequence: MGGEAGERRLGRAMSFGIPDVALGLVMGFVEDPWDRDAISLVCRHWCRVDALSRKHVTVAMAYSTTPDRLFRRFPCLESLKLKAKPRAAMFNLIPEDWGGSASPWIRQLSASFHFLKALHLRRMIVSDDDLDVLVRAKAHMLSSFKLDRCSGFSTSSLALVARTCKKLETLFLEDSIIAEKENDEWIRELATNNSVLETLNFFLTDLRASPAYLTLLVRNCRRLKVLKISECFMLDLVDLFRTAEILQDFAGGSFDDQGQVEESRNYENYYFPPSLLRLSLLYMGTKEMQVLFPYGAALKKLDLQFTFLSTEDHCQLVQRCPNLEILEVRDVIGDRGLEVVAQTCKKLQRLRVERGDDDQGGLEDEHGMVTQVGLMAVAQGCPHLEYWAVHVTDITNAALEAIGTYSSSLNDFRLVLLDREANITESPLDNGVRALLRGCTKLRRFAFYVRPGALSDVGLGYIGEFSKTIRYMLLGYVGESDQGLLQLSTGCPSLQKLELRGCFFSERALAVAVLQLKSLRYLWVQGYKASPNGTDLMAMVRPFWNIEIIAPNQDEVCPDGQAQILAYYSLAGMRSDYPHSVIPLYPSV

T2: OsCOI2(F91Y) (Oryza sativa) (UniProt Q84QA7)
T2 sequence: T1 sequence with F91Y, Y477N

T3: OsCOI2 (Oryza sativa) (UniProt Q84QA7)
T3 sequence: T1 sequence with Y477N

B1: OsJAZ8 (protein, UniProt Q6ES51 1-416)
chain: MERDFLGAIGKDEEQRRHAEERKESDYFGAGGGAAAAAMDWSFASRAALMSFRSSSSAAAAAAREETRELAFPHFSALDGAKMQQASHVLARQKSFGAESHGIPQYAAAAAVHGAHRGQPPHVLNGARVIPASSPFNPNNPMFRVQSSPNLPNAVGAGGGAFKQPPFAMGNAVAGSTVGVYGTRDMPKAKAAQLTIFYAGSVNVFNNVSPEKAQELMFLASRGSLPSAPTTVARMPEAHVFPPAKVTVPEVSPTKPMMLQKPQLVSSPVPAISKPISVVSQATSLPRSASSSNVDSNVTKSSGPLVVPPTSLPPPAQPETLATTTAAAIMPRAVPQARKASLARFLEKRKERVTTVAPYPLAKSPLESSDTMGSANDNKSSCTDIALSSNRDESLSLGQPRTISFCEESPSTKLQI
B2: OsJAZ9 (protein, UniProt Q6ZJU3 1-427)
chain: MERDFLGAIWRKEEAAGKPEEHSDYRGGGGGASAAMQWQFPATKVGAASSAFMSFRSSAAAAREEDPKEAAVFDRFSLSGFRPPPRPSPGDAFDGAAAMKQRQFGFNGRQQYAAAAQHGHREQGVDSYGVAAPHHFPSPSPSPRHPVPFGHANPMLRVHSLPNVAGGSPYRNQSFSVGNSVAGSTVGVYGGPRDLQNPKVTQMTIFYDGLVNVFDNIPVEKAQELMLLASRASIPSPPSAARKSDSPISAAAKLTVPEALPARQIVVQKPEASVPLVSGVSNPITIVSQAVTLPKSFSSSNDSAGPKSGGLPLAVTPLSQASPSQPIPVATTNASAIMPRAVPQARKASLARFLEKRKERVSSVAPYPSSKSPLESSDTIGSPSTPSKSSCTDITPSTNNCEDSLCLGQPRNISFSSQEPPSTKLQI
B3: OsJAZ5 (protein, UniProt Q84R94 1-228)
chain: MASAKSGERGSSSFAMACSLLSRYVRQNGAAAGELGLGIRGEADANKGKETMELFPQNSGFGSEAAAVKETPDAREQEKRQLTIFYGGKVLVFDDFPAEKAKDLMQMASKSSSTAQNCVLLPSSATATVADNTKVSAVPAPASALPVAQANAPKPVRPNAADLPQARKASLHRFLEKRKDRLQAKAPYQGSPSDASPVKKELQESQPWLGLGPQVAAPDLSLRQESSQ
B4: OsJAZ1 (protein, UniProt Q7XEZ1 1-171)
chain: MAAAGSSSRFAVTCGLLSQYMRERQQPQPPVTVLEAVAEEEEEEDARTMQLFPPRAAAADGVATPSAGTAPLTIFYDGRMVVVDDVPVEKAAELMRLAGSACSPPQPAHAAALPEMPIARKASLQRFLQKRKHRITTTSEPYKKAAVASPAPEKSFAVAPVKDEPATWLGL
B5: JAZ11 (protein, UniProt Q9M246 1-238)
chain: MAEVNGDFPVPSFADGTGSVSAGLDLLVERSIHEARSTEPDASTQLTIIFGGSCRVFNGVPAQKVQEIIRIAFAGKQTKNVTGINPALNRALSFSTVADLPIARRRSLQRFLEKRRDRSTKPDGSMILPSQLTIIFGGSFSVFDGIPAEKVQEILHIAAAAKATETINLTSINPALKRAISFSNASTVACVSTADVPIARRRSLQRFFEKRRHRFVHTKPYSATTSEADKNETSPIVT
B6: JAZ4 (protein, UniProt Q58G47 1-310)
chain: MERDFLGLGSKLSPITVKEETNEDSAPSRGMMDWSFSSKVGSGPQFLSFGTSQQETRVNTVNDHLLSSAAMDQNQRTYFSSLQEDRVFPGSSQQDQTTITVSMSEPNYINSFINHQHLGGSPIMAPPVSVFPAPTTIRSSSKPLPPQLTIFYAGSVLVYQDIAPEKAQAIMLLAGNGPHAKPVSQPKPQKLVHHSLPTTDPPTMPPSFLPSISYIVSETRSSGSNGVTGLGPTKTKASLASTRNNQTAAFSMAPTVGLPQTRKASLARFLEKRKERVINVSPYYVDNKSSIDCRTLMSECVSCPPAHHLH
B7: JAZ7 (protein, UniProt O64687 1-148)
chain: MIIIIKNCDKPLLNFKEMEMQTKCDLELRLLTSSYDSDFHSSLDESSSSEISQPKQESQILTIFYNGHMCVSSDLTHLEANAILSLASRDVEEKSLSLRSSDGSDPPTIPNNSTRFHYQKASMKRSLHSFLQKRSLRIQATSPYHRYR
B8: OsJAZ6 (protein, UniProt Q8H395 1-244)
chain: MAASARPVGVGGERATSFAMACSLLSRYVRQNGAAAAELGLGIRGEGEAPRAAPATMSLLPGEAERKKETMELFPQSAGFGQQDAITADSAADAREQEPEKRQLTIFYGGKVLVFNDFPADKAKGLMQLASKGSPVAPQNAAAPAPAAVTDNTKAPMAVPAPVSSLPTAQADAQKPARANASDMPIARKASLHRFLEKRKDRLNAKTPYQASPSDATPVKKEPESQPWLGLGPNAVVKPIERGQ
B9: JAZ9 (protein, UniProt Q8W4J8 1-267)
chain: MERDFLGLSDKQYLSNNVKHEVNDDAVEERGLSTKAAREWGKSKVFATSSFMPSSDFQEAKAFPGAYQWGSVSAANVFRRCQFGGAFQNATPLLLGGSVPLPTHPSLVPRVASSGSSPQLTIFYGGTISVFNDISPDKAQAIMLCAGNGLKGETGDSKPVREAERMYGKQIHNTAATSSSSATHTDNFSRCRDTPVAATNAMSMIESFNAAPRNMIPSVPQARKASLARFLEKRKERLMSAMPYKKMLLDLSTGESSGMNYSSTSPT
B10: JAZ8 (protein, UniProt Q8LBM2 1-131)
chain: MKLQQNCDLELRLFPTSYDSDSSDTTSVVESTSSGNPQPNEESQRITIFYNGKMCFSSDVTHLQARSIISIASREMKTKSSSNGSDPPNKSTSFHHNQLPNPKASMKKSLQSFLQKRKIRIQATSPYHSRR
B11: JAZ10 (protein, UniProt Q93ZM9 1-197)
chain: MSKATIELDFLGLEKKQTNNAPKPKFQKFLDRRRSFRDIQGAISKIDPEIIKSLLASTGNNSDSSAKSRSVPSTPREDQPQIPISPVHASLARSSTELVSGTVPMTIFYNGSVSVFQVSRNKAGEIMKVANEAASKKDESSMETDLSVILPTTLRPKLFGQNLEGDLPIARRKSLQRFLEKRKERLVSTSPYYPTSA

What follows are binders tested against T1, OsCOI2(N477Y) (Oryza sativa) (assay: two-hybrid; OsCOIs as baits in pGBKT7, OsJAZs or JAZs as preys in pGADT7, co-transformed into S. cerevisiae AH109; growth on SD without Ade, His, Leu and Trp (QDO) with 100 µM coronatine, 7 days; graded strong (+++), medium (++), weak (+), undetectable (−)).

| binding | Binder |
| --- | --- |
| no binding | B1 |
| no binding | B2 |
| no binding | B3 |
| no binding | B4 |

These binders were tested against T2, OsCOI2(F91Y) (Oryza sativa) in the same assay as above.

| binding | Binder |
| --- | --- |
| no binding | B1 |
| no binding | B3 |

These binders were tested against T3, OsCOI2 (Oryza sativa) in the same assay as above.

| binding | Binder |
| --- | --- |
| no binding | B5 |
| no binding | B1 |
| no binding | B6 |
| no binding | B2 |
| no binding | B7 |
| no binding | B8 |
| no binding | B9 |
| no binding | B10 |
| no binding | B3 |
| no binding | B11 |
